Here are results for 1 molecule from paper PMC11009388, “Insights into the molecular mechanism of yellow cuticle coloration by a chitin-binding carotenoprotein in gregarious locusts” (Communications Biology, 2024).

For this assay, the target named is human 14-3-3 protein isoform γ (human) (UniProt P61981). Description: cross-linking; glutaraldehyde 0.23%, 15 min at 30 °C, 20 mM HEPES pH 7.5, 150 mM NaCl; analysed by SDS-PAGE; both purified.

Results are given in words; binding and its absence hold for the method and conditions named. Some results given as binding are weak or reduced against the parent protein; the word gives no strength.

B1: human 14-3-3 protein isoform γ (protein, UniProt P61981 1-247)
chain: MVDREQLVQKARLAEQAERYDDMAAAMKNVTELNEPLSNEERNLLSVAYKNVVGARRSSWRVISSIEQKTSADGNEKKIEMVRAYREKIEKELEAVCQDVLSLLDNYLIKNCSETQYESKVFYLKMKGDYYRYLAEVATGEKRATVVESSEKAYSEAHEISKEHMQPTHPIRLGLALNYSVFYYEIQNAPEQACHLAKTAFDDAIAELDTLNEDSYKDSTLIMQLLRDNLTLWTSDQQDDDGGEGNN
Take B1: the binding entry was “binds”.
